NP40-soluble protein abundance data for five targets are collected here from the supplement of paper PMC6411743.

Sequences of proteins named here, by UniProt entry; tags and fusion partners are left off. A change or cut given only in a name is not applied to a line headed by its entry.
UniProt O75832: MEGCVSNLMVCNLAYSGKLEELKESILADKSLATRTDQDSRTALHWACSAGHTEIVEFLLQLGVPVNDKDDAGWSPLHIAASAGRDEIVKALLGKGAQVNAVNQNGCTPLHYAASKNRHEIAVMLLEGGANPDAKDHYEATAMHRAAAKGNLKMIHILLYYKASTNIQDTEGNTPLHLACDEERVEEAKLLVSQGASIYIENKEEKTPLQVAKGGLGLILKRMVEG
UniProt Q8IYB3: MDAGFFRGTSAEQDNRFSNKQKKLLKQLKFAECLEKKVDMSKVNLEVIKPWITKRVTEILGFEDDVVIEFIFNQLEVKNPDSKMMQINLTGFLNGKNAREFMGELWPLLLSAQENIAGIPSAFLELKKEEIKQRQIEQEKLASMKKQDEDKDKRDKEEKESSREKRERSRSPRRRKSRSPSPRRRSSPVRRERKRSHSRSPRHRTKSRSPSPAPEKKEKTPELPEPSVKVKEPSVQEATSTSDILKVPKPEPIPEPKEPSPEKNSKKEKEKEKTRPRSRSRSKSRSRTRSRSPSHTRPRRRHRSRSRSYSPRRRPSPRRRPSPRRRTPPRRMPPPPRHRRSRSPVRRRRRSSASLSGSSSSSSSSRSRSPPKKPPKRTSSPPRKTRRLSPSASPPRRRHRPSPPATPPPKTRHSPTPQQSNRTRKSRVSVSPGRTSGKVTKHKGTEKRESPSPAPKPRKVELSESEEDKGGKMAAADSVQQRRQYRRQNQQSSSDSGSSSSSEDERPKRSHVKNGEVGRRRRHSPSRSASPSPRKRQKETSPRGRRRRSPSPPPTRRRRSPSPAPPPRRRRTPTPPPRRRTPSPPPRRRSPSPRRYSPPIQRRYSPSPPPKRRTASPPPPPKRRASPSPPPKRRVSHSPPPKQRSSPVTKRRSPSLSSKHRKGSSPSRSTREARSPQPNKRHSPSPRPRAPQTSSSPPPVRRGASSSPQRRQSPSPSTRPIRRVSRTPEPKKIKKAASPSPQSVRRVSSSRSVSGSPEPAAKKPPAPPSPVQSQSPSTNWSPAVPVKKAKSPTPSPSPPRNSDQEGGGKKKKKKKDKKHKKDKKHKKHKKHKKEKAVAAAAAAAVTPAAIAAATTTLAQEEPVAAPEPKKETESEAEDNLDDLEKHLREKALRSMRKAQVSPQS
UniProt P22415: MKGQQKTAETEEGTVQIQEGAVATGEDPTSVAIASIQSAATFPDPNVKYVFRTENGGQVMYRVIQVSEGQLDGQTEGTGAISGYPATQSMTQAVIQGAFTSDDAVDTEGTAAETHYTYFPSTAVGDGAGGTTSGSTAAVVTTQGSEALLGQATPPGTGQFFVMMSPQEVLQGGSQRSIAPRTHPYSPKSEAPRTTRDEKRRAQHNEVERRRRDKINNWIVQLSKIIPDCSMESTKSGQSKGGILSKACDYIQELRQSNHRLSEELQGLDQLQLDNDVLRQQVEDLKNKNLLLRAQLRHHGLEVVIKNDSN
UniProt Q9NRN9: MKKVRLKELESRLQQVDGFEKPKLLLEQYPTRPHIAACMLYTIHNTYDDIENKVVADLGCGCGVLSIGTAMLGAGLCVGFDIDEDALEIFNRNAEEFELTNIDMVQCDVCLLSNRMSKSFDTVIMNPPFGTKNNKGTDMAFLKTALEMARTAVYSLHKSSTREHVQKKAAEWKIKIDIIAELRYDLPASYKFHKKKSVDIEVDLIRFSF
UniProt Q9UKS7: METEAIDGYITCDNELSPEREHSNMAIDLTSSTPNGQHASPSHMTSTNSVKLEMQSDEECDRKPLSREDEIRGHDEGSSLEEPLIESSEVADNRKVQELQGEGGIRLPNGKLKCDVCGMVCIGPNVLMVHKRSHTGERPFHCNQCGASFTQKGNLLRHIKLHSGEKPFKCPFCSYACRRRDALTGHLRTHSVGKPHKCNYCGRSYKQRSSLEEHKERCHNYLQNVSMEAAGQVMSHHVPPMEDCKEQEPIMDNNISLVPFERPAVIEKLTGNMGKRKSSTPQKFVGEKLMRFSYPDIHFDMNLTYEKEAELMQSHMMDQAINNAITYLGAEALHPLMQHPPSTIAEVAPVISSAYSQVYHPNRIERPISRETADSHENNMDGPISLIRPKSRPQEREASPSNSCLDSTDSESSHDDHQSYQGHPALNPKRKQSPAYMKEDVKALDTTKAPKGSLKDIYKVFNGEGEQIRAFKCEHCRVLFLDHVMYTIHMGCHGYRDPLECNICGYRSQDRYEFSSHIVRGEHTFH

± gives the standard deviation of the averaged measurements. Some of the results follow.

Compound in the test: Nc1nc2c(ncn2[C@@H]2O[C@H](COP(=O)(O)OP(=O)(O)OP(=O)(O)O)[C@@H](O)[C@H]2O)c(=O)[nH]1 [guanosine triphosphate]
As to the kind of experiment: NP40-soluble protein abundance relative to vehicle (solubility fold change) (ratio); higher = more soluble protein in presence of GTP. How it is done: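 Solubility proteome profiling in Jurkat crude lysate. Lysate was treated with Mg-GTP (0.1-10 mM) for 10 min at room temperature and 3 min at 37 °C, then solubilised with 0.8% NP40 and benzonase, followed by ultracentrifugation. Proteins were quantified by TMT10 LC-MS/MS; the value is the NP40-soluble abundance relative to the NP40-processed vehicle, from 3 independent experiments.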

As for “B1AJY7 and related entries (UniProt O75832)”, the NP40-soluble protein abundance amounted to 0.856 ± 0.034 (concentration: 0.1mM); 0.907 ± 0.065 (concentration: 0.5mM); 0.972 ± 0.12 (concentration: 1mM); 0.95 ± 0.12 (concentration: 2mM); 0.949 ± 0.19 (concentration: 4mM); 0.984 ± 0.14 (concentration: 6mM). The NP40-soluble protein abundance (concentration: 8mM) came to 0.903 ± 0.062 and the NP40-soluble protein abundance (concentration: 10mM) was 0.959 ± 0.17.

With “A9Z1X7 and related entries (UniProt Q8IYB3)”, the NP40-soluble protein abundance runs as follows: (concentration: 0.1mM) 1.01 ± 0.03; (concentration: 0.5mM) 1.16 ± 0.043; (concentration: 1mM) 1.35 ± 0.061; (concentration: 2mM) 1.27 ± 0.13; (concentration: 4mM) 1.14 ± 0.24; (concentration: 6mM) 1.17 ± 0.23. Further, the NP40-soluble protein abundance by setting is: (concentration: 8mM) 1.17 ± 0.25; (concentration: 10mM) 1.22 ± 0.36.

On to “B1AQP1 and related entries (UniProt P22415)”, for which the NP40-soluble protein abundance is, setting by setting: (concentration: 0.1mM) 0.951 ± 0.037; (concentration: 0.5mM) 0.924 ± 0.066; (concentration: 1mM) 0.977 ± 0.075; (concentration: 2mM) 0.947 ± 0.12; (concentration: 4mM) 0.933 ± 0.12; (concentration: 6mM) 0.934 ± 0.099. Also, the NP40-soluble protein abundance is, setting by setting: (concentration: 8mM) 0.993 ± 0.084; (concentration: 10mM) 0.995 ± 0.067.

In the case of “B8ZZC8 and related entries (UniProt Q9NRN9)”, the NP40-soluble protein abundance was 1.09 ± 0.1 (concentration: 0.1mM); 1.06 ± 0.12 (concentration: 0.5mM); 0.931 ± 0.013 (concentration: 1mM); 0.975 ± 0.042 (concentration: 2mM); 0.944 ± 0.052 (concentration: 4mM); 0.947 ± 0.032 (concentration: 6mM). Moreover, the NP40-soluble protein abundance came to 0.87 ± 0.064 (concentration: 8mM) and 0.865 ± 0.14 (concentration: 10mM).

Turning to “B4DWF2 and related entries (UniProt Q9UKS7)”, the NP40-soluble protein abundance came to 0.976 ± 0.026 (concentration: 0.1mM); 0.988 ± 0.029 (concentration: 0.5mM); 1.03 ± 0.062 (concentration: 1mM); 1.08 ± 0.034 (concentration: 2mM); 1.18 ± 0.051 (concentration: 4mM); 1.21 ± 0.058 (concentration: 6mM). In addition, the NP40-soluble protein abundance by setting is: (concentration: 8mM) 1.3 ± 0.13; (concentration: 10mM) 1.35 ± 0.11.
